From publication PMC7701562
These are yes or no findings as the source states them, for the method shown. In cells and extracts the contact can be indirect. Some entries that bind do so weakly or less than the wild type.

Protein sequences, listed by entry. Tags and fused reporters are not part of them. Residues count along the entry.
UniProt O00206, residues 24-839: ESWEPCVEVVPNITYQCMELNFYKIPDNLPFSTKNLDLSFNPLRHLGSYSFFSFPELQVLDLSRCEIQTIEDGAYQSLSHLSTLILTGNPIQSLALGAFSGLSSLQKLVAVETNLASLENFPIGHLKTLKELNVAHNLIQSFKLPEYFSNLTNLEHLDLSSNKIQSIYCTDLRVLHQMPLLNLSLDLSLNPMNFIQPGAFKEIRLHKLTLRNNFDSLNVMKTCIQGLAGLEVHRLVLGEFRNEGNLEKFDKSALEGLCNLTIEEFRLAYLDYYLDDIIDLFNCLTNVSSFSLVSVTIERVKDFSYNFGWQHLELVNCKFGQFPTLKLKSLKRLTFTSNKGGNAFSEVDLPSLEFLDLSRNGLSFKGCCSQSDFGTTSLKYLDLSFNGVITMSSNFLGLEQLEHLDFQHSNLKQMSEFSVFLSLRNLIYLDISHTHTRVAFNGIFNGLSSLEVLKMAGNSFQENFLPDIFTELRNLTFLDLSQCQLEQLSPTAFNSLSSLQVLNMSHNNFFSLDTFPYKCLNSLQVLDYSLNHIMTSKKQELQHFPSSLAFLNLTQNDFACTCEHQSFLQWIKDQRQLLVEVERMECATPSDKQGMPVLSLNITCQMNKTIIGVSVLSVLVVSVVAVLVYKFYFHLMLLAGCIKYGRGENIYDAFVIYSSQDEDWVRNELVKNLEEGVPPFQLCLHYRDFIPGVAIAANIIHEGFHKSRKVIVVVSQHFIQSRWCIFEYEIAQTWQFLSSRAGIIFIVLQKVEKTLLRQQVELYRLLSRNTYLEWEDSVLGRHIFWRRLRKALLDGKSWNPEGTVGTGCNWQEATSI

Biological target: Toll‐like receptor 4 (TLR4) (human (endogenous in primary human OA chondrocytes)) (UniProt O00206)
Experiment: co-IP; lysates of primary human OA chondrocytes incubated with anti-TLR4 antibody for 1 h, protein G-Sepharose overnight at 4°C, washed with cold PBS, immunoblot with anti-MD-2; cells untreated, treated with LPS (1 μg/mL), LPS with Astilbin (40 μmol/L) pre-treatment, or Astilbin alone

B1: Myeloid differentiation protein‐2 (MD‐2) (protein, UniProt Q9Y6Y9 19-160)
chain: QKQYWVCNSSDASISYTYCDKMQYPISINVNPCIELKRSKGLLHIFYIPRRDLKQLYFNLYITVNTMNLPKRKEVICRGSDDDYSFCRALKGETVNTTISFSFKGIKFSKGKYKCVVEAISGSPEEMLFCLEFVILHQPNSN
binding: binds
